Measurements published in paper PMC10150531.
No constants are given. Whether binding was seen depends on the method and setting. In cells and extracts the contact can be indirect. A yes stands for co-enrichment or nearness to the bait. Other partners may have been found.

Protein sequences, listed by entry. Tags and fused reporters are not part of them.
UniProt Q9UGP8: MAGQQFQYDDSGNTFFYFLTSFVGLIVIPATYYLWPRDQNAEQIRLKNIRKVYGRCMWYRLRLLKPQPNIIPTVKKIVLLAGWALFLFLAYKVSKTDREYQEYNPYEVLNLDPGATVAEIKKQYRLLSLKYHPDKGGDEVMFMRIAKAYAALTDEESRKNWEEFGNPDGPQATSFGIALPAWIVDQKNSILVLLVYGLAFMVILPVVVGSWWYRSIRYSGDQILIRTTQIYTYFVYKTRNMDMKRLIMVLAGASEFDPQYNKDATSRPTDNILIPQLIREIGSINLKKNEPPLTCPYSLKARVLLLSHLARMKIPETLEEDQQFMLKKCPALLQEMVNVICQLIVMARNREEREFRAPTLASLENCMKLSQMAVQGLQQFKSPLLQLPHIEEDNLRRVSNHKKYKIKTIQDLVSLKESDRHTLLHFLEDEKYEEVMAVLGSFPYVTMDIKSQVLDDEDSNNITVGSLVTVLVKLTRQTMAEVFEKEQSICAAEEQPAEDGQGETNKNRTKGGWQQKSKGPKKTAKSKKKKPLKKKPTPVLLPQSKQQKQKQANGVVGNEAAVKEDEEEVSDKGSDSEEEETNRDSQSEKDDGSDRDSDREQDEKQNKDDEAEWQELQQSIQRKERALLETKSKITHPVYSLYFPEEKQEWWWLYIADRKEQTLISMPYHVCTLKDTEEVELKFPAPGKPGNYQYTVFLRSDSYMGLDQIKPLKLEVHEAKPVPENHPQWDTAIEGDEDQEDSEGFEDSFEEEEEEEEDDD
UniProt P53396: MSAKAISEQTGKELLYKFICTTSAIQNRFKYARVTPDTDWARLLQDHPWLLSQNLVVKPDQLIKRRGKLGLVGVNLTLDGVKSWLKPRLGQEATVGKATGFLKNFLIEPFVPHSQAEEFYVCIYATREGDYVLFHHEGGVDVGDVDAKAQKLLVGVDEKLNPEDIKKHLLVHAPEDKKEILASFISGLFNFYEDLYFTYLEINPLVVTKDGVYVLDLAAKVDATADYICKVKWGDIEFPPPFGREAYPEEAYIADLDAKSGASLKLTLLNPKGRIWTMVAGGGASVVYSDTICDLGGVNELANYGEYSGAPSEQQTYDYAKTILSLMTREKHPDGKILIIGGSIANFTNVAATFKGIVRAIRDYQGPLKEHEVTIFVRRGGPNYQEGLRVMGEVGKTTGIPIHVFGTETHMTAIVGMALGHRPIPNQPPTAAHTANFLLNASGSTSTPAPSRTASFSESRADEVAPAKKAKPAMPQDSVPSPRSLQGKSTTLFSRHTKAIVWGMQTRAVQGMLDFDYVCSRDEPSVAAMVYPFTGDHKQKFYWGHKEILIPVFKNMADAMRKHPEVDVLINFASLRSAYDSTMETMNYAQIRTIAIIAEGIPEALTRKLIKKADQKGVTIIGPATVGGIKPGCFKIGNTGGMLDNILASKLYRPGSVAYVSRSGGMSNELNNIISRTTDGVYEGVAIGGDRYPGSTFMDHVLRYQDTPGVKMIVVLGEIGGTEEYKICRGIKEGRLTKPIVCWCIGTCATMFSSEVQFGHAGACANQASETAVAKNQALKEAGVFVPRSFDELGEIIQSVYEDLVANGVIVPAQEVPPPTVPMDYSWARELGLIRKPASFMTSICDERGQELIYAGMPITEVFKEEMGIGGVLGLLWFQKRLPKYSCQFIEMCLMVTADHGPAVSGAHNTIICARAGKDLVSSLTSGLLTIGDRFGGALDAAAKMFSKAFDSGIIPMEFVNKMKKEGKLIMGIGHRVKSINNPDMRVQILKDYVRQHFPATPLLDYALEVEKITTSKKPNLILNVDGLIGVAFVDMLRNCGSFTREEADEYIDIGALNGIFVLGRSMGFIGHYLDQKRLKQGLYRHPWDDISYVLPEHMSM
UniProt P84022: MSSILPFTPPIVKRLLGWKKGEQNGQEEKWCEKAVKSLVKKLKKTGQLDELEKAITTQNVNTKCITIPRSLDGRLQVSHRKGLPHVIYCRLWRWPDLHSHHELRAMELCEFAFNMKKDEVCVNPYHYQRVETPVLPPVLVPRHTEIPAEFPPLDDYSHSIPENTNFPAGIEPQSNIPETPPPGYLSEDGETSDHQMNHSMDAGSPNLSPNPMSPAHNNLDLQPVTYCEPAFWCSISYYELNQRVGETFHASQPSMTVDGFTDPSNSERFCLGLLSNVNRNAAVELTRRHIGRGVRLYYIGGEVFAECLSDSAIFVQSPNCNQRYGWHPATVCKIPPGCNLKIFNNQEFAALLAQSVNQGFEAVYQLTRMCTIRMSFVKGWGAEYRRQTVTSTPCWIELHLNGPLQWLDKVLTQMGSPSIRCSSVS

Columns and labels:
[1] = target: SEC63 (human (endogenous in Huh7)) (UniProt Q9UGP8); assay: affinity purification with mass spectrometry; SEC63-interacting proteins upon ER stress identified by liquid chromatography-tandem mass spectrometry
[2] = target: Adenosine triphosphate (ATP)-citrate lyase (ACLY) (human (endogenous in Huh7)) (UniProt P53396); assay: affinity purification with mass spectrometry; Co-IP of ACLY followed by mass spectrometry; cells and antibody not named

| binding [1] | binding [2] | Substance |
| --- | --- | --- |
| binds |  | SMAD3 (from UniProt P84022 1-425) |
|  | binds | SEC63 (from UniProt Q9UGP8 1-760) |
